Assay results reported in the supplement of paper PMC9233669.
This sample is rich in variants without activity.

How the values were obtained:
biotinyl-Ile-oxazolone = test: self-aminoacylation, catalytic enhancement (BIO) (fold over background); higher = more active; k-Seq, kA / k0A0; sequences stand for … in GGGAAUGGAUCCACAUCUACGAAUUC…UUCACUGCAGACUUGACGAAGCUG
Outline: (§1)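 The uncatalyzed rate is the low-activity peak of a bimodal Gaussian fit, and catalytic enhancement is median kA divided by it. The kA values came from pseudo-first-order fits, with 1000 bootstraps, of per-sequence fraction reacted measured by streptavidin capture, triplicate qPCR and Illumina sequencing. Mutagenized RNA pools with a 21-nt variable region (0.43 μM) were reacted with each biotinyl-aminoacyl-oxazolone at 2–1250 μM in 50 μL HEPES/NaCl/KCl/MgCl2/CaCl2 buffer with 5% acetonitrile, pH 6.9–7.0, for 90 minutes at room temperature.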

biotinyl-Phe-oxazolone = test: self-aminoacylation, catalytic enhancement (BFO) (fold over background); higher = more active; k-Seq, kA / k0A0; sequences stand for … in GGGAAUGGAUCCACAUCUACGAAUUC…UUCACUGCAGACUUGACGAAGCUG
Outline: as §1

biotinyl-Met-oxazolone = test: self-aminoacylation, catalytic enhancement (BMO) (fold over background); higher = more active; k-Seq, kA / k0A0; sequences stand for … in GGGAAUGGAUCCACAUCUACGAAUUC…UUCACUGCAGACUUGACGAAGCUG
Outline: as §1

biotinyl-Val-oxazolone = test: self-aminoacylation, catalytic enhancement (BVO) (fold over background); higher = more active; k-Seq, kA / k0A0; sequences stand for … in GGGAAUGGAUCCACAUCUACGAAUUC…UUCACUGCAGACUUGACGAAGCUG
Outline: as §1

biotinyl-Trp-oxazolone = test: self-aminoacylation, catalytic enhancement (BWO) (fold over background); higher = more active; k-Seq, kA / k0A0; sequences stand for … in GGGAAUGGAUCCACAUCUACGAAUUC…UUCACUGCAGACUUGACGAAGCUG
Outline: as §1

biotinyl-Leu-oxazolone = test: self-aminoacylation, catalytic enhancement (BLO) (fold over background); higher = more active; k-Seq, kA / k0A0; sequences stand for … in GGGAAUGGAUCCACAUCUACGAAUUC…UUCACUGCAGACUUGACGAAGCUG
Outline: as §1

Sequence | self-aminoacylation (biotinyl-Ile-oxazolone) | self-aminoacylation (biotinyl-Phe-oxazolone) | self-aminoacylation (biotinyl-Met-oxazolone) | self-aminoacylation (biotinyl-Val-oxazolone) | self-aminoacylation (biotinyl-Trp-oxazolone) | self-aminoacylation (biotinyl-Leu-oxazolone)
CGACACUUCAAGCAUUCGGUC [Fam1B.1 aminoacylation ribozyme variant] | 1.8 | 3.31 | 1.64 | 1.99 | 1.51 | 1.55
CGACACUUCAAGCGAUCGGUC [Fam1B.1 aminoacylation ribozyme variant] | 1.59 | 0.915 | 1.29 | 1.46 | 1.79 | 1.42
CGACACUUCAAGCUAUCGGUC [Fam1B.1 aminoacylation ribozyme variant] | 1.05 | 0.581 | 0.695 | 1.11 | 1.03 | 0.877
CGACACUUUAAGCAAUCGGUC [Fam1B.1 aminoacylation ribozyme variant] | 1.07 | 0.833 | 0.74 | 1.06 | 0.727 | 0.779
CGACUUAAAACAAUCGGUCUG [Fam1A.1 aminoacylation ribozyme variant] | 1.33 | 1.15 | 1.48 | 1.17 | 1.06 | 1.26
CGACUUCAAACAAACGGUCUG [Fam1A.1 aminoacylation ribozyme variant] | 0.944 | 1.04 | 0.914 | 0.895 | 0.719 | 0.859
CGACUUCAAACAAUAGGUCUG [Fam1A.1 aminoacylation ribozyme variant] | 0.889 | 1.15 | 0.779 | 0.768 | 0.783 | 0.644
CGACUUCAAACUAUCGGUCUG [Fam1A.1 aminoacylation ribozyme variant] | 1.15 | 1.76 | 1.1 | 1.34 | 1.07 | 1.07
CGCCACUUCAAGCAAUCGGUC [Fam1B.1 aminoacylation ribozyme variant] | 1.53 | 37.1 | 1.39 | 1.69 | 24.2 | 2.26
CUAAUCCAAACAAUCGGUCUG [Fam1A.1 aminoacylation ribozyme variant] | 0.717 | 1.08 | 0.702 | 0.786 | 0.473 | 0.627
CUACACUUCAAGCAACCGGUC [Fam1B.1 aminoacylation ribozyme variant] | 0.923 | 1.03 | 0.749 | 1.02 | 0.531 | 0.663
CUACACUUCAAGCAAUCGGAC [Fam1B.1 aminoacylation ribozyme variant] | 0.806 | 1.9 | 0.963 | 0.657 | 0.898 | 0.602
CUACACUUCAAGCACUCGGUC [Fam1B.1 aminoacylation ribozyme variant] | 0.886 | 0.867 | 0.786 | 0.945 | 0.614 | 0.757
CUACCUCAAACAAUCGGACUG [Fam1A.1 aminoacylation ribozyme variant] | 0.872 | 1.27 | 0.915 | 0.833 | 1.05 | 0.614
CUACCUCAAACAAUCUGUCUG [Fam1A.1 aminoacylation ribozyme variant] | 0.73 | 0.973 | 0.637 | 0.787 | 0.807 | 0.57
CUACCUCAAACCAUCGGUCUG [Fam1A.1 aminoacylation ribozyme variant] | 1.09 | 0.637 | 0.85 | 1.06 | 1.26 | 0.892
CUACCUCAAACUAUCGGUCUG [Fam1A.1 aminoacylation ribozyme variant] | 0.913 | 1.03 | 0.761 | 1.08 | 0.812 | 1.17
CUACGUCAAACAAUAGGUCUG [Fam1A.1 aminoacylation ribozyme variant] | 0.789 | 1.5 | 0.62 | 0.94 | 0.602 | 0.855
CUACGUCAAACAAUCGGUCUU [Fam1A.1 aminoacylation ribozyme variant] | 1.03 | 0.732 | 1.01 | 1.23 | 1.55 | 1.03
CUACGUCAACCAAUCGGUCUG [Fam1A.1 aminoacylation ribozyme variant] | 1.17 | 3.4 | 1.14 | 1.4 | 1.23 | 1.12
CUACUACAAACAAUCGCUCUG [Fam1A.1 aminoacylation ribozyme variant] | 0.702 | 0.783 | 0.521 | 0.639 | 0.522 | 0.509
CUACUACAAACAAUCGGUCCG [Fam1A.1 aminoacylation ribozyme variant] | 0.68 | 0.697 | 0.953 | 1.02 | 0.846 | 0.78
CUACUACAACCAAUCGGUCUG [Fam1A.1 aminoacylation ribozyme variant] | 0.64 | 0.736 | 0.646 | 0.775 | 0.627 | 0.608
CUACUACCAACAAUCGGUCUG [Fam1A.1 aminoacylation ribozyme variant] | 0.756 | 0.998 | 0.694 | 0.845 | 0.915 | 0.916
CUACUCCAAACAAUCAGUCUG [Fam1A.1 aminoacylation ribozyme variant] | 0.71 | 1.53 | 0.67 | 0.728 | 1.05 | 0.601
